Measured values taken from patent publication US7947312B2, “Method of preparation and composition of a water soluble extract of the bioactive component of the plant species Uncaria for enhancing immune, anti-inflammatory, anti-tumor and DNA repair processes of warm blooded animals” (priority 2002, dated 2011).
Some results were stated once for a whole list of compounds, not compound by compound. At least one compound was matched to its structure with a doubt left.

System: human HL-60 leukemic cells
Assay: In vitro growth inhibition by QA salts in cultured HL-60 cells, MTT, 72 hr (FIG. 8)
Assay type: cell-based
Protocol: QA was purchased from Sigma (>99%). QA salts were synthesized by neutralization with the appropriate base, i.e., NH4OH, NaOH, Ca(OH)2, Zn(OH)2, LiOH, KOH, lysine or histidine. Serial dilutions of test compounds were added to human HL-60 leukemic cells (0.05×10^6 cells/ml) in 96-well, flat bottomed microtiter plates to give final concentrations in the cultures up to 3000 μg/ml. The plates were incubated for 72 hr at 37 C, pulsed with 20 μl MTT (5 mg/ml) for 3 hr, and the color estimated spectrophotometrically at 540 nm as described previously. (Schweitzer, C M et al. Spectrophotometric determination of clonogenic capacity of leukemic cells in semisolid microtiter culture systems. Experimental Hematology 21: 573-578, 1993). IC50 values were calculated and compared based on the live/dead ratio of cells.

Which “IC50 in cultured HL-60 cells” value does the source give for `O=C([O-])C1(O)CC(O)C(O)[C@H](O)C1.[Na+]` (stereo partly shown) [Quinic acid (QA) sodium salt] here?
Its value is ≤ 1,100 μg/ml.
